Patent publication US20110256056A1
These are yes or no findings as the source states them, for the method shown. Some results given as binding are weak or reduced against the parent protein; the word gives no strength.

What was measured:
[1] = molecular target: HER2 (Her2/neu, ErbB2) on human cells and in human tissue sections (human) (UniProt P04626); assay: immunohistochemistry on stomach cancer tissue
[2] = molecular target: HER2 (Her2/neu, ErbB2) on human cells and in human tissue sections (human) (UniProt P04626); assay: immunohistochemistry on a breast cancer tissue microarray
[3] = molecular target: HER2 (Her2/neu, ErbB2) on human cells and in human tissue sections (human) (UniProt P04626); assay: immunohistochemistry on breast tissue
[4] = molecular target: HER2 (Her2/neu, ErbB2) on human cells and in human tissue sections (human) (UniProt P04626); assay: immunohistochemistry on colon tissue
[5] = molecular target: HER2 (Her2/neu, ErbB2) on human cells and in human tissue sections (human) (UniProt P04626); assay: immunohistochemistry on FFPE tissue sections
[6] = molecular target: soluble/shed HER2 in human plasma (human) (UniProt P04626); assay: ELISA on plates coated with plasma
[7] = molecular target: HER2 isolated as Spot 1 on a 2D gel (UniProt P04626); assay: 2D gel western blot, spot identified by MALDI-MS
[8] = molecular target: phosphorylated form of HER2 from SKBR3 cell lysates (185 kDa band) (human) (UniProt P04626); assay: reciprocal immunoprecipitation and western blot with anti-phosphotyrosine, 185 kDa band
[9] = molecular target: HER2 (Her2/neu, ErbB2) on human cells and in human tissue sections (human) (UniProt P04626); assay: immunofluorescence on fixed, permeabilised cells
[10] = molecular target: phosphorylated form of HER2 from SKBR3 cell lysates (185 kDa band) (human) (UniProt P04626); assay: immunoprecipitation from SKBR3 lysate and western blot

Measured: binding

B1: Alper-HER2 mAb 2HE (antibody, IgG1, V domains shown)
VH: GPGLAAPSQSLSITCTVSGFSLTSYVISWVRQPPGKGLEWLGVIWTGGGTNYNSALKSRLSISKDNSKSQVSLKMNSLQTDDTARYYCASLSYDGFDYWGQGTTVT
VL: ILMTQSPAIMSASPGEKVTMTCSASSSVSYMHWYQQKSGTSPKRWIYDTSKLASGVPARFSGSGSGTSYSLTISSMEAEDAATYYCQQWSSNPLTFGAGTKLEIK
binds: [1] | [2] | [3] | [4] | [5] | [6] | [7] | [8] | [9] | [10]
